## Results of single-concentration screens

By UniProt entry, the sequences of proteins in these tests, tags left out. Residues count along the entry.
UniProt Q4DA54, 1-478: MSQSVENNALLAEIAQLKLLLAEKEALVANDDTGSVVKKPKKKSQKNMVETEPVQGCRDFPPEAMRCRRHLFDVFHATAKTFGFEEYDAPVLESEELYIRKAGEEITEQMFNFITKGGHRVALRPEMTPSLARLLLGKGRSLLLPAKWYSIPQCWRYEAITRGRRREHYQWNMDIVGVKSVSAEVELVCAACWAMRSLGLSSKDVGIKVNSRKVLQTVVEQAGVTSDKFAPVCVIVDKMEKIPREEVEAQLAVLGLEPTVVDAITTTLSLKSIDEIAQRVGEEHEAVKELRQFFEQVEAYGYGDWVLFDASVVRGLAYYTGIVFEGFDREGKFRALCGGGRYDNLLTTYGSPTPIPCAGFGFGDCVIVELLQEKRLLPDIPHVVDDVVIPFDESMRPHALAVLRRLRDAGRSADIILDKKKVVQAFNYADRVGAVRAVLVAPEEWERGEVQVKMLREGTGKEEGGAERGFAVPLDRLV
UniProt A4I591, 1-473: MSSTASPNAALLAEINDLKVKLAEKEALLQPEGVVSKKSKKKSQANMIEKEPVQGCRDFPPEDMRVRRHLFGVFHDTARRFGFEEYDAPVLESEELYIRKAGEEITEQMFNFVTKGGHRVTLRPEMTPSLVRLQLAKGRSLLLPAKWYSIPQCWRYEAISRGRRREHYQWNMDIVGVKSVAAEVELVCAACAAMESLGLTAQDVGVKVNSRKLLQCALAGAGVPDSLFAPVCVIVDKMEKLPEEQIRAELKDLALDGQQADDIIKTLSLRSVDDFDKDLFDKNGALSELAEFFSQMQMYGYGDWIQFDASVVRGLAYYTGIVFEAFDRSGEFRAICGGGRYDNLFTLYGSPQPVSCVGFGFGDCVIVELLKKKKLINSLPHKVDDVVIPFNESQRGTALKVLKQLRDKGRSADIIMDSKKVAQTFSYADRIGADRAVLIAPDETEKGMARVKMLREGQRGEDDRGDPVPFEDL
UniProt Q8IDJ8, 1-583: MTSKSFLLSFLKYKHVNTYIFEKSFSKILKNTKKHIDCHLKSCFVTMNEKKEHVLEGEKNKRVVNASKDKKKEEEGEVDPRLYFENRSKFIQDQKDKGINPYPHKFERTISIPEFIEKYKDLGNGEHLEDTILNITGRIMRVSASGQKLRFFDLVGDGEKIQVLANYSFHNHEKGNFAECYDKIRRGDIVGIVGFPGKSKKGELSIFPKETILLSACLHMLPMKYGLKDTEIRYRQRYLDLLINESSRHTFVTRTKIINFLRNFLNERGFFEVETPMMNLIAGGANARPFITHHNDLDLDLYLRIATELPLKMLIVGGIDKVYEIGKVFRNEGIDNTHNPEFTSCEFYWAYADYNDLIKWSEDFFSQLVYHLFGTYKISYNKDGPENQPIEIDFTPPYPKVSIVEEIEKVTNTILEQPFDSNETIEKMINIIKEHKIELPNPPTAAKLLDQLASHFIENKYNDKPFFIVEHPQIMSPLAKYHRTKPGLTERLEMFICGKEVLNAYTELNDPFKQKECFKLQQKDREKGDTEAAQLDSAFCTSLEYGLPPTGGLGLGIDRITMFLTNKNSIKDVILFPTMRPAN
UniProt P9WNZ1, whole entry: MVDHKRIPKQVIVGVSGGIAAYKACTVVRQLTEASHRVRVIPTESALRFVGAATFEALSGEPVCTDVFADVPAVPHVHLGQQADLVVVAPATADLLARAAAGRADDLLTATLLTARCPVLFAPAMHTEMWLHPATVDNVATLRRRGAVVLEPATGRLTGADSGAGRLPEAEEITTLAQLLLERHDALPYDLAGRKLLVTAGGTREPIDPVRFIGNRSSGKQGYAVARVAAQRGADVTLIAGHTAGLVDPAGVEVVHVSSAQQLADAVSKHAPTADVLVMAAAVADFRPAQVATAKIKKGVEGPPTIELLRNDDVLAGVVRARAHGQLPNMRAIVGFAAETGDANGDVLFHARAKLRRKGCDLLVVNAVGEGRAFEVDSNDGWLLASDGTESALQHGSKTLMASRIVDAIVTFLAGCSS

The values are deposited in ChEMBL (CHEMBL3988442, “University of Dundee, Small-Polar-MMV Screening Library” (2021)).

Each number is a percent effect as filed. How 0% and 100% were set is not recorded. Most values in the screen are low, and negative values occur. Compounds were drawn at random from those tested, without regard to their results. A dash means the value is not listed here; it may have been measured.

TcHisRS: 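Histidine-tRNA ligase, Trypanosoma cruzi CL Brener (UniProt Q4DA54). Enzyme assay of histidyl-tRNA synthetase; the read-out is not stated. Tested at 30 µM. Higher reads as stronger inhibition (inferred: compounds with an IC50 in retests scored well above the rest). About 69,000 compounds were tested under these conditions; 0.045% (about 31) showed 50% or more at least once.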
LiHisRS: 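Enzyme assay of histidyl-tRNA synthetase; the read-out is not stated. Target: Histidine-tRNA ligase, Leishmania infantum (UniProt A4I591). Tested at 30 µM. Direction is inferred from retests: higher values go with stronger inhibition. The assay is labelled LdHisRS but filed under L. infantum. Size under these conditions: about 69,000 compounds, about 410 of them at 50% or above in at least one test.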
Toxoplasma: 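Assay of Toxoplasma gondii numbers, read through their beta-galactosidase reporter with a colour substrate. Concentration: 10 µM. The record gives no direction; the compounds picked for IC50 retests had high values, so higher reads as fewer parasites. Size under these conditions: about 67,000 compounds, about 260 of them at 50% or above in at least one test.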
PfKRS1: 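Lysine-tRNA ligase, Plasmodium falciparum 3D7 (UniProt Q8IDJ8). Enzyme assay of the cytosolic lysyl-tRNA synthetase in 384-well plates, read by luminescence. Concentration: 30 µM. Direction is inferred from only a few compounds that gave an IC50; most scored high, so higher reads as stronger inhibition. About 69,000 compounds were tested under these conditions; 0.071% (about 49) showed 50% or more at least once.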
CoaBC: 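Enzyme assay of CoaBC with a phosphate dye (Biomol Green) read at 650 nm. Target: Coenzyme A biosynthesis protein CoaBC, Mycobacterium tuberculosis (UniProt P9WNZ1). Concentration: 30 µM. Higher reads as stronger inhibition, judged from the few compounds that gave an IC50. Most strong results did not repeat in a second test. About 67,000 compounds were tested under these conditions; 0.06% (about 40) showed 50% or more at least once.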

Compound	TcHisRS	LiHisRS	Toxoplasma	PfKRS1	CoaBC
CN(C)C(=O)CN1CCC2(COCc3cnc(-c4ccccc4)nc32)C1 (centres undefined)	9.524%	10%	-24.73%	2.378%	-2.222%
CN1CCN(CCO)C(=O)C12CCN(c1nccs1)CC2	5.063%	15.52%	13%	13.75%	-
COc1cc2c(cc1OC)S(=O)(=O)N(Cc1cnn(C)c1)C2=O	10.53%	9.167%	0.9132%	2.882%	-
CC(C)NC(=O)N1CCN(C(=O)NC(C)C)CC2(CNC(=O)C2)C1	2.439%	17.95%	-13.33%	4.516%	7.018%
O=C(O)C(F)(F)F.O=C(c1cnoc1)N1CCC[C@]2(C[C@@H](OCc3ccccn3)CO2)C1	-	-	21.54%	-	-
CC(=O)N1CCC(c2nn(C)c3nccnc23)C1 (centres undefined)	2.128%	7.292%	-12.04%	-0.1396%	2.696%
CCOCC1CN(Cc2cccc(C#N)c2)Cc2nccn2C1 (centres undefined)	9.917%	7.619%	-	-7.078%	-47.1%
Cc1ccc(-c2cc(C(=O)NCCC3=CCCCC3)[nH]n2)o1	1.149%	30.77%	28.69%	4.767%	6%
O=C(Cn1ccnc1)N1C[C@@H]2CC[C@H](Oc3ccccc3)[C@@H]2C1	0.5405%	19.44%	-	2.113%	-3.611%
[H][C@@]12CS(=O)(=O)C[C@]1([H])N(Cc1nccn1C)CCN2CC=C(C)C	-	-	-9.572%	-	-
O=C(c1ccccn1)N1CCC2(CC1)COC(COCC1CCCC1)C2 (centres undefined)	17.36%	16.36%	-	2.227%	-0.4202%
COCCOc1ccc(CNC2CCc3ncnn3C2)cc1OC (centres undefined)	3.96%	2.381%	-3.487%	1.793%	0.9709%
Cc1nc(CN2CC3(CCN(c4ncc(F)cn4)C3)CC2=O)cs1.O=C(O)C(F)(F)F (centres undefined)	-	-	1.33%	-	-
Fc1ccccc1-c1cc(N2[C@@H]3CC[C@H]2CNC3)n2nccc2n1	14.22%	21.52%	-	2.174%	0.1267%
CCN1C(=O)[C@]2(CC[C@@H]3CN(C(=O)Nc4ccc(F)cc4)C[C@@H]32)N=C1C	5.521%	9.877%	-	1.64%	1.921%
CCS(=O)(=O)N1CCC2(CC1)CC(OCC1CC1)CO2 (centres undefined)	2.299%	10.53%	-5.179%	1.095%	8.35%
O=C(c1ccc(-n2cccn2)nc1)N1CCCN(c2cccnn2)CC1	0.3774%	-5.333%	-2.185%	10.8%	7.949%
COCc1csc(NC(=O)NCc2ncccc2C)n1	5.051%	3.175%	9.145%	1.344%	0.3241%
COCC(=O)Nc1ccc2c(c1)CN(C(=O)c1ccco1)CC2	6%	10.96%	17.54%	-2.627%	-8.827%
O=S(=O)(C1CC1)N1CCc2ncnc(-c3ccc(F)cc3)c2CC1	1.604%	17.95%	3.976%	3.567%	7.917%
Cl.NCc1cc(-c2ccccc2)n2nccc2n1	-	-	0.4233%	-	-
COc1ccc(S(=O)(=O)N2CCOC(C)(C(N)=O)C2)cc1 (centres undefined)	6.78%	6.993%	-10.67%	0.2584%	0.4843%
Cc1ccc(C(=O)NCCCS(=O)(=O)c2ccccc2)c(=O)[nH]1	3.261%	21.21%	-5.37%	6.095%	-0.6048%
CC(O)CN1CCN(C(=O)CN(C)c2ccc(C#N)cn2)CC1 (centres undefined)	-1.026%	6.122%	-2.011%	-5.082%	3.444%
[H][C@]12CC[C@]([H])(CN(C(=O)N(C)C)C1)N(Cc1nnc(-c3ccco3)o1)C2	-	-	17.22%	-	-
Cc1cc2c(cc1C)OC1(C=C2)CCN(CC(=O)N2CCOCC2)CC1	2%	12.08%	0.4952%	2.465%	10.73%
c1ccc(C(Cn2cccn2)Nc2cnccn2)cc1 (centres undefined)	-0.4975%	5.594%	-4.759%	4.145%	1.235%
CCOc1cc(CNC(=O)NC2CC=CC2)ccc1OC(F)F	8.38%	5.263%	-10.62%	5.03%	3.629%
CN(C)C(=O)N1CC2(CCN(S(C)(=O)=O)CC2)c2ccccc21	6.522%	14.47%	-1.534%	3.96%	0.9346%
COc1cc2c(cc1OC)S(=O)(=O)N(Cc1cc(C)on1)C2=O	-15.79%	7.5%	-1.712%	3.007%	-
[H][C@@]12CCN(c3nc(-c4ccncc4)nc4c3cnn4C)C[C@@]([H])(CC1)N2C	-	-	-2.238%	-	-
CC(C(=O)Nc1ncccn1)N1CCCN(c2nccs2)CC1 (centres undefined)	1.527%	8.511%	-4.436%	0.1407%	4.145%
[H][C@]12CCCN(S(=O)(=O)c3ccc(OC)c(F)c3)[C@@]1([H])CN(C(=O)C1CC1)C2	-	-	-2.29%	-	-
O=C(NCc1cnn2cccnc12)C1CC(=O)N(Cc2cccnc2)C1 (centres undefined)	0.9662%	12.5%	-18.3%	3.176%	9.068%
COc1ncccc1NC(=O)N(C1CC1)C(C)C(C)C (centres undefined)	1.714%	0%	9.319%	-0.4703%	1.673%
O=C1CCCN1CCN1CCCCC1Cn1cccn1 (centres undefined)	2.956%	26.03%	-5.942%	6.599%	3.526%
Cc1oncc1C(=O)NCC1(O)CCc2ccccc2C1 (centres undefined)	3.365%	-2.439%	7.249%	3.888%	-2.417%
O=C(N1CCOCC1)N1CCCC2(CCCNC2)C1 (centres undefined)	1.942%	7.767%	-	5.071%	-5.089%
CC(C)c1nnc(NC(=O)C2CSCN2C(=O)C2CCC2)s1 (centres undefined)	3.191%	24.29%	2.122%	5.24%	1.025%
CCc1nc(C2CCCN(C(=O)c3c(C)noc3C)C2)no1 (centres undefined)	5.539%	16.81%	1.685%	-0.1355%	4.178%
CN(C)C(=O)c1nn(C)c2c1CN(Cc1ccc(F)cc1)C2.O=C(O)C(F)(F)F	-	-	-6.287%	-	-
COc1cccc(-c2cnc(C3CCNCC3)cn2)c1	1.493%	-3.158%	-6.537%	0.9754%	-1.703%
Cc1occc1C(=O)N1CCc2c(CNS(C)(=O)=O)cncc2C1.Cl	-	-	3.832%	-	-
O=C(Cn1ccc2sccc2c1=O)NCc1ccc(F)cc1	2.97%	5.435%	10.65%	-0.4137%	3.269%
CC(C)S(=O)(=O)c1nnc(CCNC(=O)OC(C)(C)C)o1	1.639%	1.942%	-4.901%	-2.367%	4.441%
CCCS(=O)(=O)N1CCN(c2ccnc(N3CCCCC3)n2)CC1	10.89%	20.55%	0.1808%	0.1997%	-8.32%
Cc1nc(N2CCN(C(=O)c3ccc(O)cc3)CC2)c2cnn(C)c2n1	2.256%	4.762%	-2.7%	4.287%	5.813%
O=C(NCc1cccnc1)C1CC(=O)N(CC2CC2)C1 (centres undefined)	-1.132%	24%	7.265%	-0.5674%	4.359%
CC(=O)c1cccc(NC(=O)c2cnc(N3CCN(C)CC3)nc2C)c1	0.9901%	-1.087%	-20.62%	-2.505%	-4.479%
CC(=O)Nc1ccc(CNC2COc3c2ccc(C)c3C)cc1 (centres undefined)	9.524%	13.7%	-28.62%	6.341%	6.818%
Cc1c(C(=O)N2CCOCC2)n(C)c2ccc(Cl)cc12.Cl	-	-	0.9185%	-	-
O=C1CC(C(=O)NCCN2CCOC2=O)c2cc(F)ccc2N1 (centres undefined)	0%	17.95%	-16.75%	1.225%	-3.562%
[H][C@]12CCCC(=O)N[C@@]1(C)CCCCN2C(=O)c1cccc(C)n1	-	-	-19.23%	-	-
[H][C@]12CN(c3ncccn3)C[C@@]1([H])S(=O)(=O)CC[C@@H]2C(=O)NCC(C)C	-	-	19.41%	-	-
C[C@@H]1C[C@@H]2CCN(C(=O)c3cnccn3)C[C@H]2O1	4.813%	-1.923%	-	5.407%	3.934%
O=C(NCCC1=CCCCC1)NC1CCCc2c1cnn2CCO (centres undefined)	16.67%	16.96%	4.767%	9.081%	2.479%
CC(C)(O)CNC(=O)NCc1nccn1CCc1ccccc1	5.263%	19.64%	0.4872%	2.029%	2.659%
[H][C@@]12COC[C@]1(COCC1CC1)CN(S(=O)(=O)c1ccccc1)C2	-	-	11.15%	-	-
O=C(Cn1cccn1)N1CCC(c2nnc(C(F)(F)F)o2)CC1	7%	19.57%	-20.12%	2.792%	2.421%

The first 6 entries again:

Compound,TcHisRS,LiHisRS,Toxoplasma,PfKRS1,CoaBC
CN(C)C(=O)CN1CCC2(COCc3cnc(-c4ccccc4)nc32)C1 (centres undefined),9.524%,10%,-24.73%,2.378%,-2.222%
CN1CCN(CCO)C(=O)C12CCN(c1nccs1)CC2,5.063%,15.52%,13%,13.75%,-
COc1cc2c(cc1OC)S(=O)(=O)N(Cc1cnn(C)c1)C2=O,10.53%,9.167%,0.9132%,2.882%,-
CC(C)NC(=O)N1CCN(C(=O)NC(C)C)CC2(CNC(=O)C2)C1,2.439%,17.95%,-13.33%,4.516%,7.018%
O=C(O)C(F)(F)F.O=C(c1cnoc1)N1CCC[C@]2(C[C@@H](OCc3ccccn3)CO2)C1,-,-,21.54%,-,-
CC(=O)N1CCC(c2nn(C)c3nccnc23)C1 (centres undefined),2.128%,7.292%,-12.04%,-0.1396%,2.696%